{"source": "patent US12298306B2", "about": "“Marker for identifying patients with gliobastoma who respond positively to the drug regorafenib” (ISTITUTO ONCOLOGICO VENETO IOV-IRCCS, priority 2018, dated 2025)", "origin": "cited, not measured here", "system": "glioblastoma", "conditions": "cited from earlier work", "note": "At least one compound was matched to its structure with a doubt left."}
{"smiles": "Cn1nnc2c(C(N)=O)ncn2c1=O", "note": "[temozolomide]", "values": [{"measurement": "percentage of living patients at 2 years after diagnosis", "setting": "2 years after diagnosis", "value": 26, "unit": "%"}, {"measurement": "percentage of living patients at 5 years", "setting": "5 years", "value": 9.8, "unit": "%"}, {"measurement": "average survival", "setting": "surgery followed by radiotherapy + TMZ, then TMZ alone", "value": 14.6, "unit": "months"}]}
